At least one compound was matched to its structure with a doubt left.
Test system: hair loss, Stage III Vertex/Stage IV MPHL
Assay: Example 1: single subject given the components cumulatively over 7 months
Format: in vivo, human
Conditions: taken before the implementations of the disclosure

Nc1cc(N2CCCCC2)nc(N)[n+]1[O-] [minoxidil]
hair outcome of earlier treatments (subject's history): improvement was minimal

From patent US12151017B2, “Compositions and methods for hair regrowth” (Nutraceutical Wellness, Inc., priority 2015, dated 2024)
